The assay concerns CD2F1 mice, intracerebral L1210 leukemia, survival T/C. The assay is described as follows: NCI In Vivo Anticancer Drug Screen. Data for tumor model L1210 Leukemia (intracerebral) in CD2F1 (CDF1) mice. The following applies: T/C endpoint: median survival time, schedule: Q01DX001 (ip), higher T/C = longer survival. As for the experimental part: The antitumor activity of compounds was measured in mice bearing transplantable tumors. Survival or tumor size were measured and the results are expressed as the measurement made in the treated group (T) divided by the measurement made in the vehicle treated control group (C). The tumor model used in this assay is L1210 Leukemia (intracerebral) in CD2F1 (CDF1) mice

The list does not hold the whole screen: its compounds were picked by chemical class. Not every dose and run of a compound is shown. T/C gives the treated animals as a percentage of the vehicle group. Where survival is the endpoint, this PubChem deposit counts one and a half times the control or more as active, and values a quarter to a half above the control carry no call in these data; other NCI protocols may use other cut-offs. Some T/C values are marked as having no survivor count here; that says nothing about deaths at the dose. Schedules are NCI's codes, read here as Q, the interval in days (D) or hours (H), X, the number of doses.

As for `NC1CCCCC1.NP(=O)(O)N(CCCl)CCCl`, the T/C (dose: 40.0 mg/kg/injection, vehicle: saline) is 94 % of control [survivor count not shown]; the T/C (dose: 80.0 mg/kg/injection, vehicle: saline) is 95 % of control [survivor count not shown]; the T/C (dose: 160.0 mg/kg/injection, vehicle: saline) was 106 % of control [survivor count not shown].
In the case of `O=NN(CCSCCCl)C(=O)NC1CCCCC1`, the T/C (dose: 4.0 mg/kg/injection, vehicle: other) was 102 % of control [survivor count not shown]; the T/C (dose: 8.0 mg/kg/injection, vehicle: other) was 102 % of control [survivor count not shown]; the T/C (dose: 16.0 mg/kg/injection, vehicle: other) is 116 % of control [survivor count not shown]; the T/C (dose: 32.0 mg/kg/injection, vehicle: other) was 97 % of control [survivor count not shown]; the T/C (dose: 128.0 mg/kg/injection, vehicle: other) is 87 % of control [survivor count not shown].
